Assay [1] has as its target Dynactin p25 with a 6His tag (p25-6His) (UniProt Q9BTE1). The assay can be described thus: co-purification of co-expressed subunits.
The target of assay [2] is ROD-Zwilch-ZW10 (RZZ) complex with mCherry on ROD (UniProt P50748). Kind of assay: SEC. (In general: In gel filtration, larger molecules generally elute earlier.)
Assay [3] addresses Dynactin pointed end (PE) complex (p25, p27, p62, Arp11) (UniProt Q9BTE1). The assay can be described thus: SEC.

No constants are given. Whether binding was seen depends on the method and setting. Some entries that bind do so weakly or less than the wild type.

For the substance “Dynactin Arp11 (from UniProt Q9NZ32 1-417)”, the binding entry in assay [1] was “binds”.
As to “^mChSpindly^Chimera (BICD2 1-292 joined to Spindly 251-605) (from UniProt Q8TD16;Q96EA4)”, the binding entry in assay [2] and in assay [3] was “binds” in each case.
On to “Dynactin p27 (from UniProt O00399 1-190)”, for which, in assay [1], the binding result was “binds”.

The values are drawn from paper doi:10.1101/2022.02.02.478874.
